Reference: the supplement of paper PMC4604168 (melanoma cell lines)
The other results are listed elsewhere or left out. Repeats are few or missing, and single values can be far off.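 The apoptosis fraction was the count of cleaved-PARP antibody-stained nuclei relative to all DNA-stained nuclei, imaged in 1,536-well plates. Screening doses were set so most cells survived, and baseline and induced cleaved-PARP levels vary greatly across cell lines.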

Experiments:
Test in all cases: cleaved PARP positive nuclei fraction relative to DMSO control; melanoma cells; higher = more apoptosis
Details in all cases: library dose: low library concentration; 72 h
MZ2-MEL = tested on: MZ2-MEL
MeWo = tested on: MeWo
RPMI7951 = tested on: RPMI7951
RVH-421 = tested on: RVH-421
SkMel28 = tested on: SkMel28
SkMel2 = tested on: SkMel2
SkMel30 = tested on: SkMel30
SkMel5 = tested on: SkMel5
UACC257 = tested on: UACC257
UACC62 = tested on: UACC62

Row | SMILES | cleaved PARP positive nuclei fraction (MZ2-MEL) [%] | cleaved PARP positive nuclei fraction (MeWo) [%] | cleaved PARP positive nuclei fraction (RPMI7951) [%] | cleaved PARP positive nuclei fraction (RVH-421) [%] | cleaved PARP positive nuclei fraction (SkMel28) [%] | cleaved PARP positive nuclei fraction (SkMel2) [%] | cleaved PARP positive nuclei fraction (SkMel30) [%] | cleaved PARP positive nuclei fraction (SkMel5) [%] | cleaved PARP positive nuclei fraction (UACC257) [%] | cleaved PARP positive nuclei fraction (UACC62) [%]
1 | O=C(O)c1ccc(-c2c[nH]c3ncc(-c4ccccc4)cc23)cc1C1CCCC1 + COc1cc2c(Oc3ccc4[nH]c(C)cc4c3F)ncnc2cc1OCCCN1CCCC1 [cediranib] (first compound 0.16 µM, partner dose 0.4 µM) | 65.1 | 73.9 | 37 | 161 | 259 | 127 | 70.5 | 187 | 37.6 | 205
2 | NCC(=O)Nc1ccc(-n2nc(C(F)(F)F)cc2-c2ccc3c(ccc4ccccc43)c2)cc1 + Oc1nc(-c2ccc(C(F)(F)F)cc2)nc2c1CSCC2 [XAV939] (first compound 1 µM, partner dose 2 µM) | 88 | 292 | 92.8 | 55.6 | 279 | – | 42.1 | 128 | 105 | 626
3 | COc1ccc(COc2ccc(Cc3cnc(N)nc3N)cc2OC)cc1 + CCCCCCCCCCCC1=C(O)C(=O)C=C(O)C1=O [Embelin] (first compound 1 µM, partner dose 1.2 µM) | 87.5 | 47.7 | 82.8 | 57.2 | 109 | – | 10.3 | 124 | 78.7 | 54.7
4 | CN(C)S(=O)(=O)c1ccc2c(c1)/C(=C/c1cc3c([nH]1)CCCC3)C(=O)N2 + O=S(=O)(c1ccccc1)N(CC(F)(F)F)c1ccc(C(O)(C(F)(F)F)C(F)(F)F)cc1 [T0901317] (first compound 0.4 µM, partner dose 1.4 µM) | 117 | 200 | 66.6 | 160 | 16.9 | – | 184 | 16.2 | 47.1 | 40.7
5 | O=C(O)c1ccc(-c2c[nH]c3ncc(-c4ccccc4)cc23)cc1C1CCCC1 + NCC(=O)Nc1ccc(-n2nc(C(F)(F)F)cc2-c2ccc3c(ccc4ccccc43)c2)cc1 [OSU03012] (first compound 0.16 µM, partner dose 1 µM) | 65 | 154 | 102 | 69.7 | 221 | 135 | 118 | 419 | 165 | 96.9
6 | COc1ccc(-c2ccc3c(N4CCOCC4)nc(N4C[C@@H](C)O[C@@H](C)C4)nc3n2)cc1CO + Oc1nc(-c2ccc(C(F)(F)F)cc2)nc2c1CSCC2 [XAV939] (first compound 0.02 µM, partner dose 2 µM) | 31.4 | 66.7 | 192 | 120 | 94.2 | – | 41.4 | 101 | 301 | 44
7 | O=C(O)c1ccc(-c2c[nH]c3ncc(-c4ccccc4)cc23)cc1C1CCCC1 + COc1cc2ncnc(Nc3ccc(Oc4ccccc4)cc3)c2cc1OC [SrcI1] (first compound 0.16 µM, partner dose 2 µM) | 128 | 59.3 | 150 | 86.4 | 198 | – | 28.3 | 172 | 144 | 206
8 | COc1cc2c(Oc3ccc4[nH]c(C)cc4c3F)ncnc2cc1OCCCN1CCCC1 [cediranib] + CCc1ccc(CCOc2ccc(CC3SC(=O)NC3=O)cc2)nc1 [pioglitazone] (first compound 0.4 µM, partner dose 2 µM) | 34.8 | 97 | 79.5 | 71.1 | 65.1 | – | 42.9 | 152 | 41.6 | 319
9 | COc1ccc(COc2ccc(Cc3cnc(N)nc3N)cc2OC)cc1 + O=c1cc(-c2cccc3c2Sc2ccccc2S3)oc(N2CCOCC2)c1 [KU55933] (first compound 1 µM, partner dose 1 µM) | 53.2 | 211 | 160 | 75.9 | 172 | – | 17.6 | 27.7 | 69.8 | 37.9
10 | CN(C)S(=O)(=O)c1ccc2c(c1)/C(=C/c1cc3c([nH]1)CCCC3)C(=O)N2 + NCC(=O)Nc1ccc(-n2nc(C(F)(F)F)cc2-c2ccc3c(ccc4ccccc43)c2)cc1 [OSU03012] (first compound 0.4 µM, partner dose 1 µM) | 113 | 695 | 103 | 107 | 151 | 192 | 259 | 140 | 142 | 168
11 | CN(C)S(=O)(=O)c1ccc2c(c1)/C(=C/c1cc3c([nH]1)CCCC3)C(=O)N2 + O=C(O)C(=O)Nc1sc2c(c1C(=O)O)CCNC2 [TCS401] (first compound 0.4 µM, partner dose 1.66667 µM) | 60.2 | 143 | 153 | 49.5 | 127 | – | 41.5 | 52.5 | 111 | 104
12 | Oc1cc(-c2nc(-c3ccccc3)[nH]c2-c2ccncc2)ccc1Cl + Cc1cc([N+](=O)[O-])ccc1NS(=O)(=O)c1cc(Cl)ccc1Cl [FH535] (first compound 0.2 µM, partner dose 1 µM) | 105 | 112 | 69.4 | 77.8 | 151 | – | 59.1 | 78.6 | 99.6 | 220

Look-ups from the results shown:
COc1ccc(-c2ccc3c(N4CCOCC4)nc(N4C[C@@H](C)O[C@@H](C)C4)nc3n2)cc1CO + Oc1nc(-c2ccc(C(F)(F)F)cc2)nc2c1CSCC2 [XAV939] (first compound 0.02 µM, partner dose 2 µM) | cleaved PARP positive nuclei fraction (SkMel30) [%]: 41.4
O=C(O)c1ccc(-c2c[nH]c3ncc(-c4ccccc4)cc23)cc1C1CCCC1 + COc1cc2c(Oc3ccc4[nH]c(C)cc4c3F)ncnc2cc1OCCCN1CCCC1 [cediranib] (first compound 0.16 µM, partner dose 0.4 µM) | cleaved PARP positive nuclei fraction (UACC257) [%]: 37.6
